PubChem BioAssay AID686943, Drosophila RNAi Screening Center – 2013
Assay: 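Fly genes whose loss alters ERK activation after insulin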 (primary screen). Cell system: Drosophila S2R+ haemocyte-like cells expressing YFP-tagged ERK (Rolled). Knock-down reagent: long dsRNA against Drosophila genes. Challenge: insulin stimulation versus unstimulated cells; dose and duration not given. Read-out: 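Per-plate z-scores of phospho-ERK immunostaining normalised to YFP-tagged ERK, measured with and without insulin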. Direction: replicate 1, z-score of dpERK with insulin and replicate 2, z-score of dpERK with insulin: higher = more active ERK per ERK-YFP after insulin; replicate 1, z-score of dpERK under basal conditions: higher = more basal active ERK per ERK-YFP; replicate 1, z-score of ERK-YFP with insulin: higher = more YFP-tagged ERK signal.
The screen tested about 23,000 reagents; this is an unselected part of those with a known target gene and a result. 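Extra replicates exist only for a retested subset of genes; insulin dose and duration not given; both raised and lowered dpERK matter.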 Reagents against one gene are numbered here. Names joined by + are all predicted targets of the reagent. Not given: the amount of reagent, the time to read-out.

The opening 5 entries, to show the layout:
gene | reagent | replicate 1, z-score of dpERK with insulin | replicate 2, z-score of dpERK with insulin | replicate 1, z-score of dpERK under basal conditions | replicate 1, z-score of ERK-YFP with insulin
FucTB (GeneID 34260) | 1 | -0.22 | 0.15 | -0.73 | 0.3
Ire1 (GeneID 42358) | 1 | -0.18 | 0.12 | -1.26 | 0.14
CG15172 (GeneID 35167) | 1 | 0.89 | 0.03 | 0.59 | 0.4
Polr3H (GeneID 39310) | 1 | 0.99 | 0.25 | -0.09 | 0.22
RpL40 (GeneID 33629) | 1 | -2.54 | -2.32 | -1.35 | -2.19

Results, from the start:
gene | reagent | replicate 1, z-score of dpERK with insulin | replicate 2, z-score of dpERK with insulin | replicate 1, z-score of dpERK under basal conditions | replicate 1, z-score of ERK-YFP with insulin
FucTB (GeneID 34260) | 1 | -0.22 | 0.15 | -0.73 | 0.3
Ire1 (GeneID 42358) | 1 | -0.18 | 0.12 | -1.26 | 0.14
CG15172 (GeneID 35167) | 1 | 0.89 | 0.03 | 0.59 | 0.4
Polr3H (GeneID 39310) | 1 | 0.99 | 0.25 | -0.09 | 0.22
RpL40 (GeneID 33629) | 1 | -2.54 | -2.32 | -1.35 | -2.19
CG30036 (GeneID 246408) | 1 | 0.2 | -0.49 | -0.91 | 0.66
CG32856 (GeneID 318251) | 1 | 0.23 | -0.01 | -0.31 | 0.42
s-cup (GeneID 36371) | 1 | 1.27 | 0.03 | -0.08 | -1.26
s-cup (GeneID 36371) | 2 | 0.4 | 0.16 | 0.14 | -0.99
Fatp2 (GeneID 37657) | 1 | 0.15 | 1.22 | -0.39 | 1.29
Fatp2 (GeneID 37657) | 2 | 1.24 | 0.03 | -0.22 | 0.25
Fatp2 (GeneID 37657) | 3 | 0.45 | -1.01 | -0.21 | -0.29
Mp (GeneID 38769) | 1 | 0.92 | 0.33 | -1.02 | 0
Mp (GeneID 38769) | 2 | 0.9 | 0.67 | 0.36 | -0.15
Mp (GeneID 38769) | 3 | 1.21 | 1.14 | 0.34 | -0.14
CR17438 (GeneID 10178895) | 1 | 0.3 | 0.9 | 0.19 | 0.55
REPTOR (GeneID 42930) | 1 | -0.04 | 1.13 | -0.85 | 0.62
CG13154 (GeneID 36359) | 1 | 1.7 | 0.49 | -0.61 | -1.87
CG32847 (GeneID 318245) | 1 | 0.44 | -3.41 | 1.14 | -1.61
CG2070 (GeneID 35706) | 1 | -0.77 | -1.8 | -1.31 | -0.31
CG4880 (GeneID 32680) | 1 | -0.28 | 0.53 | -1.06 | 0.01
AdamTS-B (GeneID 31490) | 1 | -0.83 | -0.1 | -1.14 | 0.56
AdamTS-B (GeneID 31490) | 2 | 1.13 | 1.58 | 1.22 | 0.14
CHKov2 (GeneID 43068) | 1 | -0.21 | 0.06 | 0.05 | 1.03
brat (GeneID 35197) | 1 | -1.2 | -2.97 | 0.72 | -2.71
CG13123 (GeneID 34303) | 1 | -2.39 | -1 | 0.02 | -1.44
Crtc (GeneID 39970) | 1 | 0.97 | 1.8 | -1.35 | -0.48
Gr8a (GeneID 31865) | 1 | -0.04 | 0.7 | 0.73 | 0.19
CG42809 (GeneID 10178894) | 1 | -0.37 | -0.19 | -0.61 | 0.06
CG3701 (retired record) (GeneID 37568) | 1 | 0.19 | -0.37 | 0.11 | 1.67
CG3701 (retired record) (GeneID 37568) | 2 | -1.09 | -0.45 | -0.07 | 1.92
CG14540 (GeneID 43145) | 1 | -0.62 | -2.42 | -1.66 | -0.01
asRNA:CR43470 + CG14830 | 1 | 0.11 | 0.02 | -0.23 | 0.44
Sdhaf3 (GeneID 42004) | 1 | 1.67 | 0 | 0.66 | -0.73
PpN58A (GeneID 37493) | 1 | 0.38 | 0.75 | 1.23 | 0.6
Sys1 (GeneID 41023) | 1 | 0.08 | -0.23 | -1 | 0.21
ZnT63C (GeneID 38407) | 1 | -0.61 | -0.79 | -1.41 | -0.39
ZnT63C (GeneID 38407) | 2 | -0.77 | -0.66 | -0.31 | -0.25
ZnT63C (GeneID 38407) | 3 | 1.3 | 0.43 | 0.59 | 0.24
ZnT63C (GeneID 38407) | 4 | -0.42 | -0.8 | -1.96 | 0.16
CG32713 (GeneID 318166) | 1 | -0.06 | 0.68 | 1.4 | 0.55
nemy (GeneID 36395) | 1 | -0.12 | -0.41 | -0.32 | -0.01
nemy (GeneID 36395) | 2 | -0.29 | 0.71 | 0.39 | -0.34
Lim1 (GeneID 31813) | 1 | 0.26 | 0.25 | -0.65 | 0.12
Lim1 (GeneID 31813) | 2 | 1.4 | 0.32 | -0.77 | -0.05
Rbcn-3B (GeneID 31155) | 1 | -0.29 | 0.37 | 0.04 | 0.73
qm (GeneID 38816) | 1 | -1.07 | -0.88 | -0.48 | 0.36
Cpr67Fa2 (GeneID 39224) | 1 | 0.62 | 0.68 | 0.01 | 0.37
serp (GeneID 40150) | 1 | 0.45 | -0.14 | 0.43 | 0.09
serp (GeneID 40150) | 2 | 1.5 | 0.51 | 0.89 | 0.89
CG17404 (GeneID 41482) | 1 | 0.44 | 0.12 | 1.11 | 0.16
